The text below walks through data of article PMC10235067, “Increased renal elimination of endogenous and synthetic pyrimidine nucleosides in concentrative nucleoside transporter 1 deficient mice” (Nature Communications, 2023).

Several values for one entry are separate records, joined by “and”; a condition that tells them apart may be missing. Equal values may be shown once. Residues, ends and D or L forms follow the SMILES beside them.

This data set deals with CNT1. In words: Untargeted metabolomics of Slc28a1-/- vs Slc28a1+/+ mouse urine (24 h, ad libitum). Conditions: for Fold Change / log2(FC): Slc28a1-/- / Slc28a1+/+.

As for `CCCCCCC(=O)NCC(=O)O` [N-Heptanoylglycine], the “Fold Change” value is given as 0.3659 and the “log2(FC)” value is listed as -1.4506.

As to `CC/C=C\C[C@H]1C(=O)CC[C@@H]1CC(=O)N[C@H](C(=O)O)[C@@H](C)CC` [N-Jasmonoylisoleucine], the “Fold Change” value stood at 1.9849 and the “log2(FC)” value stood at 0.989.

With `CC(C)C[C@H](NC(=O)C(C)O)C(=O)O` (stereo partly shown) [N-Lactoylleucine], the “Fold Change” value is listed as 0.4005 and the “log2(FC)” value is -1.3201.

As to `CCCC(=O)N[C@H]1CCOC1=O` [N-[(3s)-2-Oxotetrahydrofuran-3-Yl]butanamide], the “Fold Change” value was 2E-01 and 0.173; the “log2(FC)” value is -2.5 and -2.5309.

Turning to `CC(O)C(=O)NC(Cc1ccc(O)cc1)C(=O)O` (stereo not shown) [N-lactoyl-Tyrosine], the “Fold Change” value was 1.2035 and the “log2(FC)” value is given as 0.2673.

`CC=CCCC=CCC(=O)OC(CC(=O)[O-])C[N+](C)(C)C` (stereo not shown) [Nona-3,7-dienoylcarnitine]: the “Fold Change” value is 0.2423 and the “log2(FC)” value is given as -2.045.

With `C[N+](C)(C)CC(CC(=O)[O-])OC(=O)CCCCCCCC(=O)O` (stereo not shown) [Nonanedioylcarnitine], the “Fold Change” value came out at 5.3406 and the “log2(FC)” value turned out to be 2.417.

For `C[N+](C)(C)CC(CC(=O)[O-])OC(=O)C=CCCC=CC(=O)O` (stereo not shown) [Octa-2,6-dienedioylcarnitine], the “Fold Change” value is 3.6298 and the “log2(FC)” value was 1.8599.

Regarding `O=C(O)CCC(=O)OC[C@H]1O[C@@H](Oc2cc3c(O)cc(O)cc3[o+]c2-c2ccc(O)cc2)[C@H](O)[C@@H](O)[C@@H]1O` [Pelargonidin 3-(6''-succinyl-glucoside)], the “Fold Change” value came to 0.001351 and the “log2(FC)” value is on record as -9.5315.

Turning to `C/C=C(/C)C(=O)O[C@H]1CN2CCC[C@H]2[C@H]1CO` [Petasinine], the “Fold Change” value turned out to be 0.1581 and the “log2(FC)” value is -2.661.

As for `O=C(OC[C@H]1OC(OCCc2ccccc2)[C@H](O)[C@@H](O)[C@@H]1O)c1cc(O)c(O)c(O)c1` (stereo partly shown) [Phenethyl 6-galloylglucoside], the “Fold Change” value is listed as 1.4413 and the “log2(FC)” value amounted to 0.5274.

With `C[N+](C)(C)C[C@@H](CC(=O)[O-])OC(=O)CCCCCC(=O)O` [Pimelylcarnitine], the “Fold Change” value is given as 3.8414 and the “log2(FC)” value worked out at 1.9416.

`C[C@]12C=CC(=O)C=C1CC[C@@H]1[C@@H]2[C@@H](O)C[C@@]2(C)[C@H]1CC[C@]2(O)C(=O)CO` [Prednisolone]: the “log2(FC)” value is recorded as 5.2701.

As for `C=CC(=O)O[C@@H](CC(=O)[O-])C[N+](C)(C)C` [Propenoylcarnitine], the “Fold Change” value is 0.7992 and the “log2(FC)” value is -0.3235.

Turning to `CCCCC[C@H](O)/C=C/[C@H]1C(=O)C[C@H](O)[C@@H]1CCCCCCC(=O)O` [Prostaglandin D1], the “Fold Change” value is recorded as 301.23 and the “log2(FC)” value amounted to 8.2347.

As to `CCCCCCCC(=O)CC(=O)SCCN` [S-3-oxodecanoyl cysteamine], the “Fold Change” value was 1.5893 and the “log2(FC)” value is reported as 0.6684.

Turning to `C=Cc1ccccc1` [Styrene], the “Fold Change” value is 4E-01 and 0.4104; the “log2(FC)” value is -1.3 and -1.2849.

With `O=C(O)C[C@H](Nc1ncnc2c1ncn2[C@@H]1O[C@H](CO)[C@@H](O)[C@H]1O)C(=O)O` [Succinyladenosine], the “Fold Change” value was found to be 1.239 and the “log2(FC)” value was 0.3092.

For `NCCS(=O)(=O)O` [Taurine], the “Fold Change” value is 0.5717 and the “log2(FC)” value was -0.8067.

Turning to `CC(C)(C)NCC(O)c1cc(O)cc(O)c1` (stereo not shown) [Terbutaline], the “Fold Change” value was 3E-01 and 0.3372; the “log2(FC)” value is -1.6 and -1.5682.

On to `C[N+](C)(C)CC(CC(=O)[O-])OC(=O)CCCCCCCC=CC=CCC(=O)O` (stereo not shown) [Tetradeca-9,11-dienedioylcarnitine], for which the “Fold Change” value was 9E+00 and 9.2286; the “log2(FC)” value was 3.2 and 3.2061.

`C[C@]12CC[C@@H](O)C[C@H]1CC[C@@H]1[C@@H]2C(=O)C[C@@]2(C)[C@H]1CC[C@]2(O)C(=O)CO` [Tetrahydrocortisone]: the “Fold Change” value came out at 37.791 and the “log2(FC)” value turned out to be 5.24.

For the compound `CC1=NC(C)(C)CS1` [Thiazole, 4,5-dihydro-2,4,4-trimethyl-], the “Fold Change” value is 3E-04 and 0.0003187; the “log2(FC)” value is -11.6 and -11.615.

With `O=C(O)[C@@H]1CSCN1` [Thioproline], the “Fold Change” value was 2E-02 and 0.01759; the “log2(FC)” value is -5.8 and -5.8288.

Consider `Cc1cn([C@H]2C[C@H](O)[C@@H](CO)O2)c(=O)[nH]c1=O` [Thymidine], for which the “Fold Change” value was 2.2992 and the “log2(FC)” value stood at 1.2011.

As for `Cc1c[nH]c(=O)[nH]c1=O` [Thymine], the “Fold Change” value is listed as 2.0513 and the “log2(FC)” value came out at 1.0365.

For `C/C=C(\C)C(=O)NCC(=O)O` [Tiglylglycine], the “Fold Change” value is 4E-01 and 0.3848; the “log2(FC)” value is -1.4 and -1.3777.

As to `CC=CC=CC=CCCCCCC(=O)OC(CC(=O)[O-])C[N+](C)(C)C` (stereo not shown) [Trideca-7,9,11-trienoylcarnitine], the “Fold Change” value stood at 15.173 and the “log2(FC)” value was 3.9235.

In the case of `NC(=O)CC(NC(=O)C(N)Cc1c[nH]c2ccccc12)C(=O)O` (stereo not drawn) [Tryptophyl-Asparagine] (H-Trp-Asn-OH; configuration not given here), the “Fold Change” value is 6E-02 and 0.06241; the “log2(FC)” value was -4.0 and -4.0022.

Take `O=c1cc[nH]c(=O)[nH]1` [Uracil]: the “Fold Change” value stood at 2.0778 and the “log2(FC)” value came to 1.055.

As to `CCCCC(=O)NCC(=O)O` [Valerylglycine], the “Fold Change” value is 0.5796 and the “log2(FC)” value is reported as -0.7869.

In the case of `CC(C)[C@H](N)C(=O)N[C@@H](CCCN=C(N)N)C(=O)O` [Valyl-Arginine] (H-Val-Arg-OH), the “Fold Change” value is on record as 1.9277 and the “log2(FC)” value was found to be 0.9469.

As for `COc1cc(C(=O)NCC(=O)O)ccc1O` [Vanilloylglycine], the “Fold Change” value is on record as 0.6175 and the “log2(FC)” value was -0.6956.

For `C[C@H](N)C(=O)NCC(=O)N[C@@H](Cc1c[nH]c2ccccc12)C(=O)N[C@@H](CS)C(=O)O` [ala-gly-trp-cys] (H-AGWC-OH), the “Fold Change” value is given as 0.3812 and the “log2(FC)” value was -1.3914.

On to `CC1=C(/C=C/C(C)=C/C=C/C(C)=C/C=C/C=C(\C)CCCO)C(C)(C)CC(O)C1` (stereo not drawn) [beta-Micropteroxanthin], for which the “Fold Change” value came to 19.067 and the “log2(FC)” value amounted to 4.253.

Consider `CC=CC(=O)OC(CC(=O)[O-])C[N+](C)(C)C` (stereo not shown) [butenoylcarnitine], for which the “Fold Change” value is 1E-01 and 0.1471; the “log2(FC)” value is -2.8 and -2.7654.

In the case of `O=C1C=CCCC1` [cyclohexenone], the “Fold Change” value turned out to be 0.4903 and the “log2(FC)” value is given as -1.0283.

In the case of `Nc1ccn([C@@H]2O[C@H](CO)[C@@H](O)[C@H]2O)c(=O)n1` [cytidine], where the note is “Slc28a1-/- vs Slc28a1+/+”, the “change of level in Slc28a1-/- mouse urine (untargeted metabolomics)” value is recorded as “no change”.

With `C[C@H](NC(=O)[C@@H](N)CCC(=O)O)C(=O)N[C@@H](CC(=O)O)C(=O)NCC(=O)O` [glu-ala-asp-gly] (H-EADG-OH), the “Fold Change” value stood at 1.8239 and the “log2(FC)” value is recorded as 0.867.
